Source: PMC3754431

Amino acid sequences for entries named in this document (tags omitted). A change or cut given only in a name is not applied to a line headed by its entry.
UniProt P23258: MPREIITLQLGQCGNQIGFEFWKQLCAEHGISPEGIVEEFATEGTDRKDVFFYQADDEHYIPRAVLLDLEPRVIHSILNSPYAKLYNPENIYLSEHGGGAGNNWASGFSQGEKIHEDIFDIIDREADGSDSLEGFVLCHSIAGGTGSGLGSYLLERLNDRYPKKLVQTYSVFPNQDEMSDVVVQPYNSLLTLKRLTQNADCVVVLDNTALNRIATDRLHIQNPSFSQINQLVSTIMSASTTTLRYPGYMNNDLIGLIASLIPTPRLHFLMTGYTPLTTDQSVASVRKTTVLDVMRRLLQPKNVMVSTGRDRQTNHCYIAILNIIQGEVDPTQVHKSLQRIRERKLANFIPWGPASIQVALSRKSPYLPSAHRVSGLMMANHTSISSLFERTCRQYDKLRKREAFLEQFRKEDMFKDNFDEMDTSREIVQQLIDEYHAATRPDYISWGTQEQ

Target: T1, FLAG-18E1^E4 (human papillomavirus type 18) (UniProt P06791)
T1 sequence: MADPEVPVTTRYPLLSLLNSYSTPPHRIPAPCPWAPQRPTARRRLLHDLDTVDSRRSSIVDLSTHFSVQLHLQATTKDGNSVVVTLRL
Assay: co-IP; lysates of 293T cells transfected with FLAG-18E1^E4; anti-FLAG antibody and Protein-G agarose in NET-Gel Buffer, 4°C, ≥ 4 h; immunoblot of the endogenous partner

In the case of γ-tubulin (from UniProt P23258), the binding is reported as “binds”.

Results are given in words; binding and its absence hold for the method and conditions named. Binding seen in cells or lysates may run through a third protein. Binding can be weak; no strength is given. Tags and fused reporters may be left off the sequences shown.
